For data set [1], the system named is P. falciparum K1 strain. In words: Antiplasmodial activity against resistant P. falciparum K1. The data set is classed as cell-based, Plasmodium falciparum.
Data set [2] relates to P. falciparum Dd2 strain. In words: Antiplasmodial activity against resistant P. falciparum Dd2. It counts as cell-based, Plasmodium falciparum.
In data set [3] the test system is P. falciparum Dd2 and K1 strains. To be noted: Dd2 and K1 related to 3D7.
Data set [4] deals with P. falciparum Dd2 (chloroquine resistance). Description: Effect of verapamil on inhibitory activity in P. falciparum Dd2. It counts as cell-based, Plasmodium falciparum. The note with it: for fold decrease of IC50 by verapamil in Dd2: 10 μM VP, Dd2 strain; for fold decrease of inhibitory activity (IC50 increase) in Dd2 versus 3D7: CQ-resistant Dd2 strain, without VP.
The mark [5] stands for this setting: ratio of IC50 resistant strain / NF54.

The structures appear in SMILES notation.

Consider eight molecules from PMC12531871, “Indole-2-carboxamides Optimization for Antiplasmodial Activity” (ACS Bio & Med Chem Au, 2025).

As to `CN1CCC(N(Cc2cccnc2)C(=O)c2cc3cc(Cl)ccc3[nH]2)CC1` [Compound 5t, 5-Chloro-N-(1-methylpiperidin-4-yl)-N-(pyridin-3-ylmethyl)-1H-indole-2-carboxamide], the “IC50 Fold-shift K1/3D7” value in data set [1] amounted to 1.5. Also, the “IC50 Fold-shift Dd2/3D7” value in data set [2] is 2. The “fold-shifts in the IC50 values against the resistant strains” value (“fold-shifts in the IC50 values” for short) in data set [3] is given as “below 5 fold”.
In the same order, the values of `O=C(c1cc2cccc(Cl)c2[nH]1)N(Cc1cccnc1)CC1CCNC1` (centres unmarked) [Compound 6c, 7-Chloro-N-(3-pyridylmethyl)-N-(pyrrolidin-3-ylmethyl)-1H-indole-2-carboxamide] are 2, 4 and “below 5 fold”.
Consider `O=C(c1cc2cc(C(F)(F)F)ccc2[nH]1)N(Cc1cccnc1)CC1CCNC1` (centres unmarked) [Compound 6f, N-(3-Pyridylmethyl)-N-(pyrrolidin-3-ylmethyl)-5-(trifluoromethyl)-1H-indole-2-carboxamide], for which, in data set [1], the “IC50 Fold-shift K1/3D7” value turned out to be 11. Further, in data set [1] (setting [5]), the “resistance index, K1” value was found to be 20. In data set [2], the “IC50 Fold-shift Dd2/3D7” value is given as more than 25. Besides, the “resistance index, Dd2” value in data set [2] (setting [5]) stood at 7. In data set [4], the “fold decrease of IC50 by verapamil in Dd2” value (“fold decrease of IC50” for short) is recorded as approximately 8 fold and the “fold decrease of inhibitory activity (IC50 increase) in Dd2 versus 3D7” value is reported as 20 fold. Further, in data set [3], the “fold-shifts in the IC50 values” value is given as “greater than 5 fold”.
Take `Cc1c(C(=O)N(Cc2cccnc2)CC2CCNC2)[nH]c2ccc(Cl)cc12` (centres unmarked) [Compound 6g, 5-Chloro-3-methyl-N-(3-pyridylmethyl)-N-(pyrrolidin-3-ylmethyl)-1H-indole-2-carboxamide]: in data set [1], the “IC50 Fold-shift K1/3D7” value was 1.5. The “IC50 Fold-shift Dd2/3D7” value in data set [2] is 2. The “fold-shifts in the IC50 values” value in data set [3] is recorded as “below 5 fold”.
On to `Cl.O=C(c1cc2cc(Cl)ccc2[nH]1)N(Cc1cccnc1)C1CCNCC1` [Compound 6x, 5-Chloro-N-(piperidin-4-yl)-N-(pyridin-3-ylmethyl)-1H-indole-2-carboxamide hydrochloride], for which, in data set [1], the “IC50 Fold-shift K1/3D7” value came to 13. Besides, the “IC50 Fold-shift Dd2/3D7” value in data set [2] was found to be 12. In addition, in data set [4], the “fold decrease of IC50” value was approximately 5 fold and the “fold decrease of inhibitory activity (IC50 increase) in Dd2 versus 3D7” value is 20 fold. For the same molecule, in data set [3], the “fold-shifts in the IC50 values” value is recorded as “greater than 5 fold”.
For `O=C(c1cc2cc(C(F)(F)F)ccc2[nH]1)N(Cc1cccnc1)C1CCNCC1` [Compound 6y, N-(Piperidin-4-yl)-N-(pyridin-3-ylmethyl)-5-(trifluoromethyl)-1H-indole-2-carboxamide], in data set [1], the “IC50 Fold-shift K1/3D7” value is listed as 7. Also, the “IC50 Fold-shift Dd2/3D7” value in data set [2] is listed as 5. Besides, the “fold-shifts in the IC50 values” value in data set [3] is reported as “greater than 5 fold”.
For `CN1CCC(CN(Cc2cccnc2)C(=O)c2cc3cc(Cl)ccc3[nH]2)C1` (centres unmarked) [Compound 7a, 5-Chloro-N-[(1-methylpyrrolidin-3-yl)methyl]-N-(pyridin-3-ylmethyl)-1H-indole-2-carboxamide], in that order: 1.5, 3 and “below 5 fold”.
Take `CCN(CC)CCCC(C)Nc1ccnc2cc(Cl)ccc12` (centres unmarked) [chloroquine, reference compound]: in data set [4], the “fold decrease of IC50” value was 10 fold and the “fold decrease of inhibitory activity (IC50 increase) in Dd2 versus 3D7” value came out at 17 fold.
